Record: PubChem BioAssay AID1671195 (Yale University, 2021)
Screen: 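Genes whose knockdown alters LDL uptake in liver cancer cells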 (primary screen). System: human Huh7 hepatoma cells. Reagent: siRNA pool against human genes, 18 nM. Duration: about 2 to 2.5 days of knockdown, then 8 h LDL uptake. Challenge: DiI-labelled LDL at 30 µg/ml for 8 h, in lipoprotein-deficient serum medium. Measured: 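Fluorescent LDL signal imaged in cells, scaled to the plate median, robust z-score for each replicate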. Reading the numbers: robust z-score: higher = more LDL uptake after knockdown. Active means: 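Active when two or more replicates show a robust z-score above 2 or below -2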.
The whole screen tested about 22,000 reagents; shown is an unselected part. Over the whole deposit, about 1,510 (6.9%) are marked active. 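Active includes knockdowns raising or lowering LDL uptake; positive z-scores mean more uptake, negative mean less.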 Reagents against one gene are numbered here.

| Target gene | reagent no. | robust z-score, replicate 1 | robust z-score, replicate 2 | robust z-score, replicate 3 | call |
| --- | --- | --- | --- | --- | --- |
| IGF1R (insulin like growth factor 1 receptor) | 1 | 0.975 | 0.142 | 1.79 | inactive |
| AP1S3 (adaptor related protein complex 1 subunit sigma 3) | 1 | -1.33 | -1.6 | -0.834 | inactive |
| MYH2 (myosin heavy chain 2) | 1 | 2.05 | 0.972 | 1.23 | inactive |
| PRAMEF2 (PRAME family member 2) | 1 | -0.212 | 0.156 | 0.0328 | inactive |
| IFI27L2 (interferon alpha inducible protein 27 like 2) | 1 | -0.982 | -1.21 | -0.385 | inactive |
| SOHLH1 | 1 | 0.288 | 0.619 | -0.0301 | inactive |
| GNB3 (G protein subunit beta 3) | 1 | -0.604 | -0.865 | -0.352 | inactive |
| DEFA5 (defensin alpha 5) | 1 | -0.137 | 0.17 | -1.63 | inactive |
| RAB2A (RAB2A, member RAS oncogene family) | 1 | 3.35 | 0.616 | 1.61 | inactive |
| TMEM114 (transmembrane protein 114) | 1 | 0.405 | 0.534 | 0.624 | inactive |
| DLL4 (delta like canonical Notch ligand 4) | 1 | -1.2 | -1.01 | -1.02 | inactive |
| GSTZ1 (glutathione S-transferase zeta 1) | 1 | -1.17 | -0.89 | -1.47 | inactive |
| SELENOM (selenoprotein M) | 1 | 2.79 | 1.31 | 2.62 | active |
| RAB3IL1 (RAB3A interacting protein like 1) | 1 | -0.935 | -1.85 | -0.539 | inactive |
| MPDU1 (mannose-P-dolichol utilization defect 1) | 1 | -0.253 | 1.72 | 0.563 | inactive |
| HELB (DNA helicase B) | 1 | -1.28 | -0.377 | -0.288 | inactive |
| MPP1 (MAGUK p55 scaffold protein 1) | 1 | 0.914 | 0.865 | -0.355 | inactive |
| LOC389447 (retired record) | 1 | -0.0102 | -0.197 | -0.429 | inactive |
| TRIL (TLR4 interactor with leucine rich repeats) | 1 | -0.0172 | -1.11 | -1.66 | inactive |
| NWD2 (NACHT and WD repeat domain containing 2) | 1 | 0.833 | 1.37 | 1.32 | inactive |
| POLL (DNA polymerase lambda) | 1 | 1.03 | 0.201 | 0.893 | inactive |
| TDRD6 (tudor domain containing 6) | 1 | -0.857 | 0.0165 | 0.444 | inactive |
| GSTM5P1 | 1 | 1.42 | -0.476 | -0.245 | inactive |

Copied from the list.
Result for MYH2 (myosin heavy chain 2) in “robust z-score, replicate 2”: 0.972
For “robust z-score, replicate 2”, IGF1R (insulin like growth factor 1 receptor) reads 0.142
NWD2 (NACHT and WD repeat domain containing 2), robust z-score, replicate 3 = 1.32
For “robust z-score, replicate 3”, TMEM114 (transmembrane protein 114) reads 0.624
Result for GSTM5P1 in “robust z-score, replicate 1”: 1.42
Under “robust z-score, replicate 1”, GNB3 (G protein subunit beta 3) shows -0.604

More results follow.
| Target gene | reagent no. | robust z-score, replicate 1 | robust z-score, replicate 2 | robust z-score, replicate 3 | call |
| --- | --- | --- | --- | --- | --- |
| GPR78 (G protein-coupled receptor 78) | 1 | -0.636 | -0.852 | -0.467 | inactive |
| HPD (4-hydroxyphenylpyruvate dioxygenase) | 1 | -0.463 | -0.556 | -0.055 | inactive |
| LRRC25 (leucine rich repeat containing 25) | 1 | -1.06 | -0.917 | -1.21 | inactive |
| HSPB1 (heat shock protein family B (small) member 1) | 1 | -1.42 | -1.49 | -1.41 | inactive |
| CASP2 (caspase 2) | 1 | 0.242 | -0.163 | 0.347 | inactive |
| RBBP8 (RB binding protein 8, endonuclease) | 1 | 1.1 | 0.501 | 0.601 | inactive |
| GPR84 (G protein-coupled receptor 84) | 1 | 0.196 | -0.448 | -0.492 | inactive |
| HLA-L (major histocompatibility complex, class I, L (pseudogene)) | 1 | 0.194 | -0.153 | 0.168 | inactive |
| LINC01239 (long independently transcribed non-coding RNA 1239) | 1 | 0.44 | 0.329 | 0.529 | inactive |
| FZD3 (frizzled class receptor 3) | 1 | -1.34 | -1.24 | -1.06 | inactive |
| NUDC (nuclear distribution C, dynein complex regulator) | 1 | -1.85 | -2.44 | -0.996 | inactive |
| LOC387931 (retired record) | 1 | -0.524 | -0.314 | -0.649 | inactive |
| LINC00879 (long independently transcribed non-coding RNA 879) | 1 | 0.646 | 0.997 | 1.21 | inactive |
| MMP27 (matrix metallopeptidase 27) | 1 | -1.43 | -1.83 | -1.57 | inactive |
| CKB (creatine kinase B) | 1 | -0.846 | 0.187 | -0.158 | inactive |
| KIAA0586 | 1 | -0.448 | -0.537 | 1.65 | inactive |
| PLA2G12A (phospholipase A2 group XIIA) | 1 | -0.263 | -0.755 | -1.24 | inactive |
| TTPA (alpha tocopherol transfer protein) | 1 | -0.485 | -0.912 | -0.725 | inactive |
| EIF3KP1 | 1 | -1.85 | -0.791 | -0.834 | inactive |
| RHBDD1 (rhomboid domain containing 1) | 1 | 0.806 | 1.29 | 0.893 | inactive |
| NCOA1 (nuclear receptor coactivator 1) | 1 | -1.09 | -1.11 | 0.221 | inactive |
| OOSP2 (oocyte secreted protein 2) | 1 | 0.213 | 0.14 | 0.2 | inactive |
| SLC26A4 | 1 | -0.438 | -0.414 | 0.203 | inactive |
| HLA-E (major histocompatibility complex, class I, E) | 1 | -0.234 | -0.0639 | -0.0189 | inactive |
| PSMD14 (proteasome 26S subunit, non-ATPase 14) | 1 | -0.0362 | 0.452 | 1.63 | inactive |
| CAPN15 (calpain 15) | 1 | -0.954 | -0.748 | -0.886 | inactive |
| DCUN1D3 (defective in cullin neddylation 1 domain containing 3) | 1 | 0.89 | 0.15 | -0.378 | inactive |
| HTRA4 (HtrA serine peptidase 4) | 1 | -2.65 | -2.27 | -2.28 | active |
| AQP7P1 (aquaporin 7 pseudogene 1) | 1 | 2.35 | 2 | 2.35 | active |
| ODAD2 (outer dynein arm docking complex subunit 2) | 1 | -0.115 | -0.493 | -1.39 | inactive |
| APRT (adenine phosphoribosyltransferase) | 1 | -0.165 | -0.477 | -0.712 | inactive |
| IL38 (interleukin 38) | 1 | -0.507 | -0.538 | -0.121 | inactive |
| MRGBP (MRG domain binding protein) | 1 | -1.7 | -1.08 | -1.91 | inactive |
| KLF14 (KLF transcription factor 14) | 1 | 0.3 | -0.35 | 0.192 | inactive |
| IPO5 (importin 5) | 1 | 3.43 | 2.2 | 2.31 | active |
| POU2AF2 (POU class 2 homeobox associating factor 2) | 1 | 1.04 | 1.14 | 1.28 | inactive |
| ESS2 (ess-2 spliceosome associated protein) | 1 | 2.25 | 0.555 | 1.55 | inactive |
| ESS2 (ess-2 spliceosome associated protein) | 2 | 1.61 | 1.53 | -1.2 | inactive |
| LMX1A (LIM homeobox transcription factor 1 alpha) | 1 | -0.335 | -0.318 | -0.357 | inactive |
| LELP1 (late cornified envelope like proline rich 1) | 1 | -0.151 | 0.0769 | 0.052 | inactive |
| ZBTB11 (zinc finger and BTB domain containing 11) | 1 | -0.613 | -0.614 | -0.37 | inactive |
| OR13C8 (olfactory receptor family 13 subfamily C member 8) | 1 | 0.565 | -0.457 | 0.435 | inactive |
| PGM1 (phosphoglucomutase 1) | 1 | -0.558 | 0.241 | -0.537 | inactive |
| LOC441815 (retired record) | 1 | -1.63 | -1.19 | -1.43 | inactive |
| NRK (Nik related kinase) | 1 | 2.58 | 2.59 | 1.78 | active |
